Reference: PubChem BioAssay AID504467 (National Center for Advancing Translational Sciences (NCATS), 2011)
In all, about 330,000 compounds went through this assay and about 7,700 (2.3%) were called active. The inconclusive results got no clear call from the source; some entries with a clear call stand among them for comparison. Calls come from the whole dose curve; as a rule, active = well fitted inhibition curve with a large enough effect; inconclusive = small, poorly fitted or top-dose-only effect, or effect the other way; inactive = flat fitted curve, though single readings scatter. Potencies beside an inconclusive call are fits to weak or partial responses and may not hold up.

assay: qHTS screen for small molecules that inhibit ELG1-dependent DNA repair in human embryonic kidney (HEK293T) cells expressing luciferase-tagged ELG1; conditions: HEK293T ELG1-luciferase reporter, luminescence, 16 h, DNA damage induced by 5-fluorouridine; series mostly up to 46.1 µM; note: nearly all actives have a fitted effect of over 55% in size
In short: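 Step one: seed 2,000 cells per well. Step two: pin-transfer compound or DMSO alongside 5-fluorouridine. Step three: incubate 16 hr, 37 °C, 5% CO2. Step four: add ONE-Glo, wait 30 min, read luminescence.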
Potency is the fitted concentration of half-maximal effect.

Row | Structure (SMILES) | Potency
1 | COC(=O)c1ccc(Cn2cc(/C=C\[N+](=O)[O-])c3ccccc32)o1 | inconclusive: 29.1 µM [inhibitor, single point]
2 | O=C(Nc1nnc(Cc2ccccc2)s1)c1cnccn1 | inconclusive: 25.9 µM [activator, single point]
3 | COc1cc(/C=N/NC(=O)c2ccc(COc3ccccc3Cl)o2)cc(Br)c1O | inactive
4 | COC(=O)c1sccc1NC(=O)CSc1nnnn1-c1ccccc1C | active: 18.4 µM
5 | CCC(C)NC(=O)c1ccc2c(c1)S(=O)(=O)c1ccccc1C2=O (centres undefined) | inconclusive: 20.6 µM [activator, partial curve]
6 | CCCCCN(C(=O)CCC(=O)OCCOc1ccc(OCC)cc1)c1c(N)n(CCCC)c(=O)[nH]c1=O | inactive
7 | CCOc1ccc2[nH]c(=O)c(CN(Cc3ccc(F)cc3)C(=O)c3ccco3)cc2c1 | inconclusive: 35.5 µM [inhibitor, single point]
8 | O=C(COC(=O)c1nn(-c2ccccc2)c(=O)c2ccccc12)NC1CCS(=O)(=O)C1 (centres undefined) | inconclusive: 7.3 µM [activator, partial curve, poor fit]
9 | CCOc1cccc2c1OC1(C)CC2NC(=O)N1c1cccc(C(=O)N2CCN(c3ccccn3)CC2)c1 (centres undefined) | inactive
10 | CN(C)S(=O)(=O)c1ccc(NC(=O)CNc2cc(S(=O)(=O)N3CCCC3)ccc2OCC(F)(F)F)cc1 | inactive
11 | N=C1C(c2nc3ccccc3[nH]2)=C(O)CN1NC(=O)c1c[nH]c2ccccc12 | inconclusive: 20.6 µM [activator, partial curve, poor fit]
12 | Cc1cccc2c1-c1sc(C(=O)Nc3nccs3)cc1CO2 | inconclusive: 2.06 µM [activator, full curve]
13 | Cc1nc2cc(NS(=O)(=O)c3c(C)c(C)cc(C)c3C)ccc2s1 | inconclusive: 2.91 µM [inhibitor, full curve]
14 | CC(C)Oc1ccc(C(CC(=O)O)NC(=O)Cc2ccccc2)cc1 (centres undefined) | inactive
15 | O=C(/C=C/c1ccccc1Cl)N1CCCN(C(=O)/C=C/c2ccccc2Cl)CC1 | inactive
16 | Cn1c(CC(=O)Nc2ccc(Cl)c(Cl)c2)nnc1SCC(=O)N1CCN(c2ccccc2)CC1 | inconclusive: 25.9 µM [inhibitor, single point]
17 | CCOC(=O)N/N=C(\C)c1ccc(C)o1 | inconclusive: 18.3 µM [activator, partial curve, poor fit]
18 | CCOC(=O)C1=C(C)N=c2s/c(=C/c3ccccc3)c(=O)n2C1c1ccc(OC)c(OC)c1 (centres undefined) | inactive
19 | N#CC(C(=S)Nc1ccccc1)c1nc2ccccc2[nH]1 (centres undefined) | active: 13 µM

Fetched by structure from above:
Row | Structure (SMILES) | Potency
5 | CCC(C)NC(=O)c1ccc2c(c1)S(=O)(=O)c1ccccc1C2=O (centres undefined) | inconclusive: 20.6 µM [activator, partial curve]
17 | CCOC(=O)N/N=C(\C)c1ccc(C)o1 | inconclusive: 18.3 µM [activator, partial curve, poor fit]
